The other results are listed elsewhere or left out. The main result of the screen is listed elsewhere. These columns were measured beside it and carry no call. Most of these compounds were active or inconclusive in the main read-out, so they are no random draw. Potencies come from curve fits of mixed quality, noted in brackets.
Test: qHTS Assay for Lipid Storage Modulators in Drosophila S3 Cells;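 as to cell number change: cells counted by Cell Tracker Red CMTPX staining in the red channel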
Settings: BODIPY lipid droplet fluorescence, 18-24 h; for cell number change: measured here: cell count max response, cells fed with added oleic acid
Summary of the method: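 Drosophila S3 cells loaded with oleic acid (400 uM, as added) and compounds at several concentrations; lipid droplets imaged by 488-nm laser-scanning cytometry, 500–530 nm intensity and object ratio to cell channel. Percent activity normalized to 20 uM Triacsin C.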

[1] = measured here: lipid fluorescence (Fed channel) AC50, cells fed with added oleic acid
[2] = measured here: cell number channel AC50, cells fed with added oleic acid

| SMILES | cell number change [%] | AC50 [1] | AC50 [2] |
| --- | --- | --- | --- |
| CCN1CCN(C(=O)C2CCC(CNS(=O)(=O)c3ccccc3)CC2)CC1 (configuration not stated) | -5.04 | 1.84 µM [falling, partial curve] | – |
| O=C(O)c1cc([N+](=O)[O-])cc2c1C=Cc1ccccc1O2 | 1.06 | 29.1 µM [rising, single point] | – |
| COc1ccccc1-c1sc2ccccc2c1-c1ccc2c(c1)OCCO2 | 17.6 | 0.411 µM [rising, partial curve] | – |
| Cc1cc(NC(=O)CN2CCCCC2)no1 | 1.43 | – | 6.51 µM [falling, partial curve, poor fit] |
| COc1ccc(N2CCN(C3CCCCC3NS(=O)(=O)c3ccc(Cl)cc3)CC2)cc1 (configuration not stated) | -0.951 | 0.58 µM [falling, single point] | – |
| COc1ccc(C)cc1NC(=O)C1CCN(S(=O)(=O)c2cccs2)CC1 | 8.11 | – | – |
| CN(C)S(=O)(=O)c1cc(S(=O)(=O)N(C)C)c(Cl)cc1N | 1.67 | – | – |
| Brc1cnc2nc[nH]c2c1 | -17.5 | 5.8 µM [falling, full curve] | – |
| CCCCn1c(=O)[nH]c(=O)c2c1nc(Cn1ncc(Cl)c(Cl)c1=O)n2CCC | – | 8.2 µM [falling, partial curve] | – |
| COc1ccc(OC)c(N(C(=O)c2snc(C(N)=O)c2N)C(C(=O)NCC2CCCO2)c2ccc3ncccc3c2)c1 (configuration not stated) | 26.7 | – | 3.26 µM [rising, full curve, poor fit] |
| CCOc1ccccc1/C=N/n1c(C)nc2ccccc2c1=O | – | – | 1.46 µM [rising, partial curve] |
| CCC(=O)Nc1cccc(C(=O)N(Cc2ccccc2)Cc2ccccc2)c1 | -15.8 | – | – |
| CCOC(=O)N1CCN(C(=O)/C(=C/c2ccccc2OC)NC(=O)c2ccccc2)CC1 | – | 0.58 µM [rising, single point] | – |
| O=S(=O)(/C=C/c1ccccc1)Nc1cccc(S(=O)(=O)NC2=NCCC2)c1 | 21.2 | – | – |
| C=CCNc1nc(-c2ccc([N+](=O)[O-])cc2)cs1 | 9.43 | 0.0058 µM [falling, full curve, poor fit] | – |
| CCOC(=O)c1[nH]c2ccc(F)cc2c1NC(=O)c1cc(OC)c(OC)c(OC)c1 | – | 0.13 µM [rising, full curve, poor fit] | – |
| c1ccc(-c2ccccc2OCCCN2CCCCCC2)cc1 | -25.4 | 29.1 µM [falling, single point] | – |

Quoted from the listing.
cell number change [%], COc1ccc(N2CCN(C3CCCCC3NS(=O)(=O)c3ccc(Cl)cc3)CC2)cc1 (configuration not stated) is entered as -0.951
cell number change [%], Cc1cc(NC(=O)CN2CCCCC2)no1 is entered as 1.43

Remaining list, next part.

| SMILES | cell number change [%] | AC50 [1] | AC50 [2] |
| --- | --- | --- | --- |
| Cc1ccc(-n2[nH]c(C)c(/C=N/NC(=O)c3ccc(O)cc3O)c2=O)cc1 | 74.8 | 11.6 µM [rising, single point] | 2.31 µM [rising, partial curve] |
| CCOc1cc(-c2nc3cc(C)ccn3c2NCC2CCCO2)ccc1O (configuration not stated) | 7.62 | 0.291 µM [rising, single point] | – |
| O=C(CNC(=S)N(Cc1ccccc1F)C1CCCCC1)NC1CC1 | 33 | 29.1 µM [rising, single point] | 29.1 µM [rising, single point] |
| CCOC(=O)N1CC=C2C(C#N)=C(N)C(C#N)(C#N)[C@H](c3cccs3)[C@H]2C1 | – | 0.58 µM [rising, single point] | – |
| Cc1ccc(C)c(N2C(=O)CC(Cc3ccc(Br)cc3)C2=O)c1 (configuration not stated) | -27.7 | 6.51 µM [falling, single point] | – |
| NC(=S)N/N=C/C=C/c1ccccc1 | -2.25 | – | 0.58 µM [rising, single point] |
| CSCCC(NC(=O)c1ccc(Cl)cc1Cl)C(=O)OC1CCCCC1=O (configuration not stated) | 12.5 | – | 0.103 µM [falling, full curve, poor fit] |
| CCn1cc(/C=N\NC(=O)c2ccccc2Cl)cn1 | -1.38 | 29.1 µM [falling, single point] | – |
| CC1CN(C(=O)CN2C(=O)NC3(CCCCCCC3)C2=O)CC(C)O1 (configuration not stated) | – | 20.6 µM [rising, partial curve] | 3.26 µM [rising, single point] |
| O=C(O)c1c(N2CCCCC2)ccc([N+](=O)[O-])c1N1CCCCC1 | 24.4 | – | – |
| CC(=O)Nc1nc(C)c(S(N)(=O)=O)s1 | 2.52 | – | 6.51 µM [falling, single point] |
| CCCC[C@H]1COCCS(=O)(=O)N1Cc1ccc(F)cc1 | 6.59 | – | – |
| CN(c1ccccc1)S(=O)(=O)c1ccc(Cl)c(C(=O)Nc2ccccc2N2CCOCC2)c1 | 49 | – | 4.11 µM [rising, full curve] |
| Nc1nc(SCC(=O)NC2CCCCCC2)[nH]c(=O)c1-c1ccccc1 | 21.8 | 0.259 µM [falling, full curve] | – |
| COc1ccccc1C(=O)COC(=O)c1cccc(S(=O)(=O)N2CCCC2)c1 | -37.6 | – | 29.1 µM [falling, single point] |
| Cc1ccc(S(=O)(=O)N(C)C)cc1NC(=O)COC(=O)C1COc2ccccc2O1 (configuration not stated) | 42.6 | 23.1 µM [rising, single point] | – |

— PubChem BioAssay AID2685 (National Center for Advancing Translational Sciences (NCATS), 2010)
